# Test results: patent publication US20100022559A1, “BISOXIMES AS FUNGICIDES” (BAYER CROPSCIENCE AG, priority 2006, published 2010)
# Some entries share one result that the patent states for a list of compounds. At least one compound was matched to its structure with a doubt left.
# System: Botrytis cinerea
# Assay: Botrytis test (bean)/protective
# Assay type: in vivo
# Settings: active compound concentration 250 ppm, protective, evaluation 2 days after inoculation
row,SMILES,efficacy
1,COc1cc(C)nc(C(C)=NOCC(C)CON=C(C)c2cc(OC)cc(C)n2)c1 (centres unmarked) [Compound 806],≥ 70%
2,CC(=NOCC(C)(C)CON=C(C)c1ccc2c(n1)CCCCC2)c1ccc2c(n1)CCCCC2 [Compound 592],≥ 70%
3,COc1cc(C)nc(C(C)=NOCC2(CON=C(C)c3cc(OC)cc(C)n3)CC2)c1 [Compound 816],≥ 70%
4,CC(=NOCC1(CON=C(C)c2cccc(C)n2)CC1)c1cccc(C)n1 [Compound 15],≥ 70%
5,CC(=NOCC(C)CON=C(C)c1nc(C)c(C)c(C)n1)c1nc(C)c(C)c(C)n1 (centres unmarked) [Compound 266],≥ 70%
6,CC(=NOC[Si](C)(CON=C(C)c1cccc(C)n1)C(C)C)c1cccc(C)n1 [Compound 834],≥ 70%
7,CCC(CON=C(C)c1cc(C)cc(C)n1)CON=C(C)c1cc(C)cc(C)n1 (centres unmarked) [Compound 679],≥ 70%
8,CC(=NOCC1(CON=C(C)c2cc(C)cc(C)n2)CC1)c1cc(C)cc(C)n1 [Compound 556],≥ 70%

# System: Alternaria solani
# Assay: Alternaria test (tomato)/protective
# Assay type: in vivo
# Settings: active compound concentration 500 ppm, protective, evaluation 7 days after inoculation
row,SMILES,efficacy
1,CC(=NOCON=C(C)c1ccccn1)c1ccccn1 [Compound 59],≥ 70%
2,Cc1cc(C)nc(/C(N)=N/OCC(C)CO/N=C(\N)c2nc(C)cc(C)n2)n1 (centres unmarked) [Compound 10],≥ 70%
3,COCc1cc(C)nc(C(C)=NOCC(C)CON=C(C)c2cc(COC)cc(C)n2)c1 (centres unmarked) [Compound 871],≥ 70%
4,C=C(CO/N=C(\N)c1csc(C)n1)CO/N=C(\N)c1csc(C)n1 [Compound 27],≥ 70%
5,CCc1cccc(C(C)=NOCC(C)CON=C(C)c2cccc(CC)n2)n1 (centres unmarked) [Compound 179],≥ 70%
6,COc1cc(C)nc(C(C)=NOCC(C)CON=C(C)c2cc(OC)cc(C)n2)c1 (centres unmarked) [Compound 806],≥ 70%
7,CC(=NOCC(C)(C)CON=C(C)c1ccc2c(n1)CCCCC2)c1ccc2c(n1)CCCCC2 [Compound 592],≥ 70%
8,COc1cc(C)nc(C(C)=NOCC2(CON=C(C)c3cc(OC)cc(C)n3)CC2)c1 [Compound 816],≥ 70%
9,CC(=NOCC1(CON=C(C)c2cccc(C)n2)CC1)c1cccc(C)n1 [Compound 15],≥ 70%
10,CC(=NOCC(C)CON=C(C)c1nc(C)c(C)c(C)n1)c1nc(C)c(C)c(C)n1 (centres unmarked) [Compound 266],≥ 70%
11,CC(=NOC[Si](C)(CON=C(C)c1cccc(C)n1)C(C)C)c1cccc(C)n1 [Compound 834],≥ 70%

# System: Leptosphaeria nodorum
# Assay: Leptosphaeria nodorum test (wheat)/protective
# Assay type: in vivo
# Settings: active compound concentration 1000 ppm, protective, evaluation 10 days after inoculation
row,SMILES,efficacy
1,CCC(CON=C(C)c1cc(C)cc(C)n1)CON=C(C)c1cc(C)cc(C)n1 (centres unmarked) [Compound 679],≥ 70%
2,CC(=NOCC1(CON=C(C)c2cc(C)cc(C)n2)CC1)c1cc(C)cc(C)n1 [Compound 556],≥ 70%

# System: Venturia inaequalis
# Assay: Venturia test (apple)/protective
# Assay type: in vivo
# Settings: active compound concentration 100 ppm, protective, evaluation 10 days after inoculation
row,SMILES,efficacy
1,CC(=NOCC(C)(C)CON=C(C)c1ccc2c(n1)CCCCC2)c1ccc2c(n1)CCCCC2 [Compound 592],≥ 70%
2,COc1cc(C)nc(C(C)=NOCC2(CON=C(C)c3cc(OC)cc(C)n3)CC2)c1 [Compound 816],≥ 70%
3,CC(=NOCC1(CON=C(C)c2cccc(C)n2)CC1)c1cccc(C)n1 [Compound 15],≥ 70%
4,CC(=NOC[Si](C)(CON=C(C)c1cccc(C)n1)C(C)C)c1cccc(C)n1 [Compound 834],≥ 70%
5,CCC(CON=C(C)c1cc(C)cc(C)n1)CON=C(C)c1cc(C)cc(C)n1 (centres unmarked) [Compound 679],≥ 70%
6,CC(=NOCC1(CON=C(C)c2cc(C)cc(C)n2)CC1)c1cc(C)cc(C)n1 [Compound 556],≥ 70%

# System: Puccinia recondita
# Assay: Puccinia test (wheat)/protective
# Assay type: in vivo
# Settings: active compound concentration 500 ppm, protective, evaluation 8-10 days after inoculation
row,SMILES,efficacy
1,COc1cc(C)nc(C(C)=NOCC(C)CON=C(C)c2cc(OC)cc(C)n2)c1 (centres unmarked) [Compound 806],≥ 70%
2,COc1cc(C)nc(C(C)=NOCC2(CON=C(C)c3cc(OC)cc(C)n3)CC2)c1 [Compound 816],≥ 70%
3,CC(=NOCC1(CON=C(C)c2cccc(C)n2)CC1)c1cccc(C)n1 [Compound 15],≥ 70%
4,CC(=NOC[Si](C)(CON=C(C)c1cccc(C)n1)C(C)C)c1cccc(C)n1 [Compound 834],≥ 70%
5,CCC(CON=C(C)c1cc(C)cc(C)n1)CON=C(C)c1cc(C)cc(C)n1 (centres unmarked) [Compound 679],≥ 70%
6,CC(=NOCC1(CON=C(C)c2cc(C)cc(C)n2)CC1)c1cc(C)cc(C)n1 [Compound 556],≥ 70%

# System: Sphaerotheca fuliginea
# Assay: Sphaerotheca test (cucumber)/protective
# Assay type: in vivo
# Settings: active compound concentration 500 ppm, protective, evaluation 7 days after inoculation
row,SMILES,efficacy
1,CCc1cccc(C(C)=NOCC(C)CON=C(C)c2cccc(CC)n2)n1 (centres unmarked) [Compound 179],≥ 70%
2,COc1cc(C)nc(C(C)=NOCC(C)CON=C(C)c2cc(OC)cc(C)n2)c1 (centres unmarked) [Compound 806],≥ 70%
3,CC(=NOCC(C)(C)CON=C(C)c1ccc2c(n1)CCCCC2)c1ccc2c(n1)CCCCC2 [Compound 592],≥ 70%
4,COc1cc(C)nc(C(C)=NOCC2(CON=C(C)c3cc(OC)cc(C)n3)CC2)c1 [Compound 816],≥ 70%
5,CC(=NOC[Si](C)(CON=C(C)c1cccc(C)n1)C(C)C)c1cccc(C)n1 [Compound 834],≥ 70%
6,CCC(CON=C(C)c1cc(C)cc(C)n1)CON=C(C)c1cc(C)cc(C)n1 (centres unmarked) [Compound 679],≥ 70%
7,CC(=NOCC1(CON=C(C)c2cc(C)cc(C)n2)CC1)c1cc(C)cc(C)n1 [Compound 556],≥ 70%

# System: Pyrenophora teres
# Assay: Pyrenophora teres test (barley)/protective
# Assay type: in vivo
# Settings: active compound concentration 1000 ppm, protective, evaluation 8 days after inoculation
row,SMILES,efficacy
1,CCc1cccc(C(C)=NOCC(C)CON=C(C)c2cccc(CC)n2)n1 (centres unmarked) [Compound 179],≥ 70%
2,CC(=NOCC1(CON=C(C)c2cccc(C)n2)CC1)c1cccc(C)n1 [Compound 15],≥ 70%
3,CCC(CON=C(C)c1cc(C)cc(C)n1)CON=C(C)c1cc(C)cc(C)n1 (centres unmarked) [Compound 679],≥ 70%
4,CC(=NOCC1(CON=C(C)c2cc(C)cc(C)n2)CC1)c1cc(C)cc(C)n1 [Compound 556],≥ 70%
